The target in assay [1] is T1, iASPP, endogenous (human (endogenous in K562 and Kasumi-1)) (UniProt Q8WUF5).
T1 sequence: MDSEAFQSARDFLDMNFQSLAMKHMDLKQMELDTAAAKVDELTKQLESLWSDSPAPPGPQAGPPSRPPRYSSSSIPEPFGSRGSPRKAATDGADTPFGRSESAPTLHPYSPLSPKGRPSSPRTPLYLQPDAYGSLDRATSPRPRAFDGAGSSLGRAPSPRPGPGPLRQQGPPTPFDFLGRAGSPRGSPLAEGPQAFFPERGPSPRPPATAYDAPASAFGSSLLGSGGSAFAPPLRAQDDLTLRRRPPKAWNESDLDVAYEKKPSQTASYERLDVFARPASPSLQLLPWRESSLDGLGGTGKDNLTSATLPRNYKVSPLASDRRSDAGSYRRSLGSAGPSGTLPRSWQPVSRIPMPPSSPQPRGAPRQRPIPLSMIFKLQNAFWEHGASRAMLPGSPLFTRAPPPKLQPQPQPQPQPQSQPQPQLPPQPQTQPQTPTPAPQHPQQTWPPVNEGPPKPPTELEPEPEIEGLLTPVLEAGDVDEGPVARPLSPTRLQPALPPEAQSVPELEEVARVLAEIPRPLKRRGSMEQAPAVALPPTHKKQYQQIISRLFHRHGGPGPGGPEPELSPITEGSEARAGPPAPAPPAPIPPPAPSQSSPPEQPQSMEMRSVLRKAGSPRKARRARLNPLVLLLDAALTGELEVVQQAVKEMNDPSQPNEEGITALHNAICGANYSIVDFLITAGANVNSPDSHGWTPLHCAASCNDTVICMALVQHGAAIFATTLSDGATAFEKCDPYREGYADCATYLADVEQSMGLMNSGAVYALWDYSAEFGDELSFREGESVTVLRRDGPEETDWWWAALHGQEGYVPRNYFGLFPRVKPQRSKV
The experiment in a line: co-IP; endogenous proteins; K562 and Kasumi-1 lysates (20mM Tris PH7.5, 150mM NaCl, 1% Triton X-100) immunoprecipitated with anti-iASPP or control anti-IgG antibody overnight at 4°C, protein A/G-Sepharose; blotted with anti-FHL2.

In assay [2] the target is T2, Flag-iASPP (human) (UniProt Q8WUF5).
T2 sequence: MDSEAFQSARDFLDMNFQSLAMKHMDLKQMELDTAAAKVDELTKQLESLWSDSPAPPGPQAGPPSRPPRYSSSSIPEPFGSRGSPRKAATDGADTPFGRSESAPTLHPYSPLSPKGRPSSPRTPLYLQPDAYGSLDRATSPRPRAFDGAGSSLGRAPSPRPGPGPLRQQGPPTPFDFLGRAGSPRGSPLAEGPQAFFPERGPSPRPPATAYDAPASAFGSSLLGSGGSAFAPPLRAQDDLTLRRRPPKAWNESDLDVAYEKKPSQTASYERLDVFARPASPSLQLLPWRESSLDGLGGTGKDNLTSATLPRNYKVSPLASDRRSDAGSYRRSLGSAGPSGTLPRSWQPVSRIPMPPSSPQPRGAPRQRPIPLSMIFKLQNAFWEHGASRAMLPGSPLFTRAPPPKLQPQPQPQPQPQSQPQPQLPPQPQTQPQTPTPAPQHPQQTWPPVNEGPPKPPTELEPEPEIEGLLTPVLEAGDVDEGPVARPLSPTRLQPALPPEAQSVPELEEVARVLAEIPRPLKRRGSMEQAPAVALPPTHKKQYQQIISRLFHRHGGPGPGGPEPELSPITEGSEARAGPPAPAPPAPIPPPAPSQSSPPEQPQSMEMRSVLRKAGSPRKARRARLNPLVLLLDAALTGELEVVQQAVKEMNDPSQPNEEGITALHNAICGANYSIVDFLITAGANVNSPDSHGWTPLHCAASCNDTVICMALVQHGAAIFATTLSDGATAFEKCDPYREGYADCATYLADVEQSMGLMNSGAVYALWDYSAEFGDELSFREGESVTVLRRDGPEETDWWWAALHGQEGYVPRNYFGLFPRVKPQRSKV
The experiment in a line: co-IP; Flag-iASPP and Myc-FHL2 or truncation mutants co-transfected into HEK293T, 48 hours; lysates immunoprecipitated with anti-Flag or anti-IgG antibodies; blotted with anti-Flag or anti-Myc.

No constants are given. Whether binding was seen depends on the method and setting. Binding seen in cells or lysates may run through a third protein. Some results given as binding are weak or reduced against the parent protein; the word gives no strength. For part of these data: Sequences can lack the tags named with a protein.

B1: FHL2, endogenous (protein, UniProt Q14192 1-279)
chain: MTERFDCHHCNESLFGKKYILREESPYCVVCFETLFANTCEECGKPIGCDCKDLSYKDRHWHEACFHCSQCRNSLVDKPFAAKEDQLLCTDCYSNEYSSKCQECKKTIMPGTRKMEYKGSSWHETCFICHRCQQPIGTKSFIPKDNQNFCVPCYEKQHAMQCVQCKKPITTGGVTYREQPWHKECFVCTACRKQLSGQRFTARDDFAYCLNCFCDLYAKKCAGCTNPISGLGGTKYISFEERQWHNDCFNCKKCSLSLVGRGFLTERDDILCPDCGKDI
Consider B1, for which the binding entry in assay [1] is recorded as “binds”.

B2: Myc-FHL2 (protein, UniProt Q14192 1-279)
chain: MTERFDCHHCNESLFGKKYILREESPYCVVCFETLFANTCEECGKPIGCDCKDLSYKDRHWHEACFHCSQCRNSLVDKPFAAKEDQLLCTDCYSNEYSSKCQECKKTIMPGTRKMEYKGSSWHETCFICHRCQQPIGTKSFIPKDNQNFCVPCYEKQHAMQCVQCKKPITTGGVTYREQPWHKECFVCTACRKQLSGQRFTARDDFAYCLNCFCDLYAKKCAGCTNPISGLGGTKYISFEERQWHNDCFNCKKCSLSLVGRGFLTERDDILCPDCGKDI
As for B2, the binding result in assay [2] was “binds”.

B3: Myc-L1/2-3 (domain or fragment, UniProt Q14192 1-220)
chain: MTERFDCHHCNESLFGKKYILREESPYCVVCFETLFANTCEECGKPIGCDCKDLSYKDRHWHEACFHCSQCRNSLVDKPFAAKEDQLLCTDCYSNEYSSKCQECKKTIMPGTRKMEYKGSSWHETCFICHRCQQPIGTKSFIPKDNQNFCVPCYEKQHAMQCVQCKKPITTGGVTYREQPWHKECFVCTACRKQLSGQRFTARDDFAYCLNCFCDLYAKK
For the molecule B3, the binding result in assay [2] is listed as “binds”.

The values above are taken from article PMC5522200.
